Laboratory results published in publication PMC12670160, “A drug-repurposing screen of FDA- and EMA-approved drugs identifies two NF-κB inhibitors active against eumycetoma” (Journal of Antimicrobial Chemotherapy, 2025).
Structures can show the parent of a compound that is named as a salt. The campaign covered roughly 5,300 compounds. About 130 (2.5%) showed an effect of 50% or more. The list shows a part of the results. Square brackets hold non-standard residues; d marks the D form. Side chains are listed from the residue outwards. Peptide text beside a SMILES is read from it. * marks the point of attachment. X1 = CCC(C)C(N)C1=NC(C(=O)*)CS1; Orn = NCCC[CH](N)C(=O)O

The compounds below were run on M. mycetomatis strain mm55. Conditions: primary screen, metabolic activity vs growth control; 96 h, 2 µM; inhibitor.
With NCCCCN(Cc1nc2ccccc2[nH]1)[C@H]1CCCc2cccnc21 [ONC0002033, mavorixafor trihydrochloride] the “% viability” value was 63.73%. O=C1c2cccc(O)c2C(=O)c2c(O)cc(CO)cc21 [ONC0005000, aloeemodin] was tested, and the “% viability” value was 68.32%. With CN(C)CCC=C1c2ccccc2C=Cc2ccccc21 [ONC0003091, cyclobenzaprine hydrochloride] the “% viability” value was 81.71%. With CN(C)CCc1c[nH]c2ccc(C[C@H]3COC(=O)N3)cc12 [ONC0004042, zolmitriptan] the “% viability” value was 92.03%. For CCCCCCCCCCCCCCCC(=O)OC[C@H](O)[C@H]1OC(=O)C(=O)C1O (some centres unmarked) [ONC0004072, ascorbyl palmitate], the “% viability” value was 135.5%. With COc1ccc(-c2noc(CC(=O)O)c2-c2ccc(OC)cc2)cc1 [ONC0005478, mofezolac] the “% viability” value was 125.7%. In the case of CC(=O)N[C@@H](CSSC[C@H](NC(C)=O)C(=O)O)C(=O)O [ONC0002807, nnü¾Œ“ ¼ü¾˜³ ¼diacetyllcystine], the “% viability” value is reported as 85.92%. In the case of O=C(NC1CCOCC1)c1ccc(-c2cc(-c3c[nH]nc3-c3ccccn3)ccn2)cc1 [ONC0005212, gw788388], the “% viability” value is reported as 130.8%. For O=C1C(=O)N(Cc2ccc(Cl)c(Cl)c2)c2ccccc21 [ONC0000172, apoptosisactivatorii], the “% viability” value was 78.29%. In the case of NS(=O)(=O)c1cc2c(cc1Cl)NCNS2(=O)=O [ONC0000531, hydrochlorothiazide], the “% viability” value is reported as 101.6%. For C[N+]1(C)CCC(=C(c2ccccc2)c2ccccc2)CC1 [ONC0004508, diphemanil methylsulfate], the “% viability” value was 48.99%. COc1cc(/C=C/C(=O)O)ccc1O [ONC0001205, ferulic acid sodium] was tested, and the “% viability” value was 134.4%. In the case of COc1ccc(CC2NCCc3c2[nH]c2ccc(C)cc32)c(Cl)c1OC (centres unmarked) [ONC0001515, ly266097], the “% viability” value is reported as 113.6%. For CCC(=O)O[C@H]1[C@H](O[C@@H]2[C@@H](C)[C@H](O[C@H]3C[C@@](C)(OC)[C@@H](O)[C@H](C)O3)[C@@H](C)C(=O)O[C@H](CC)[C@@](C)(O)[C@H](O)[C@@H](C)C(=O)[C@H](C)C[C@@]2(C)O)O[C@H](C)C[C@@H]1N(C)C [ONC0000644, erythromycin estolate], the “% viability” value was 91.16%. With Cc1ccc(Cl)c(OCC(O)CNC(C)(C)C)c1 (centres unmarked) [ONC0003796, bupranolol] the “% viability” value was 85.75%. NC(=O)c1ccc(-c2nc(-c3ccc4c(c3)OCO4)c(-c3ccccn3)[nH]2)cc1 [ONC0001919, sb431542] was tested, and the “% viability” value was 74.1%. In the case of Cc1ccc(F)cc1C(=O)Nc1ccc(C(=O)N2Cc3cccn3Cc3ccccc32)c(Cl)c1 [ONC0004587, lixivaptan], the “% viability” value is reported as 69.55%. For NC(=O)c1ncn([C@@H]2O[C@H](CO)[C@@H](O)[C@H]2O)c1N [ONC0004919, aicar acadesine], the “% viability” value was 121.2%. CC1=C(/C=C/C(C)=C/C=C/C(C)=C/C(=O)Nc2ccc(O)cc2)C(C)(C)CCC1 [ONC0001810, fenretinide] was tested, and the “% viability” value was 98.64%. CC[N+](C)(CC)CC(=O)Nc1c(C)cccc1C [ONC0001568, nmethyllidocaineiodide] was tested, and the “% viability” value was 118.5%. For C[C@@H]1C(=O)O[C@H]2C[C@@]34[C@H]5C[C@@H](C(C)(C)C)[C@]36[C@@H](OC(=O)[C@@H]6O)O[C@@]4(C(=O)O5)[C@]21O [ONC0004818, ginkgolide a], the “% viability” value was 112%. With CC1=C(C(=O)OC2CCCCC2)C(c2ccc([N+](=O)[O-])cc2)C2=C(CC(C)(C)CC2=O)N1 (centres unmarked) [ONC0000155, fli06] the “% viability” value was 107.9%. For CCOc1c(N2CCOCC2)cnn(C)c1=O [ONC0002171, emorfazone], the “% viability” value was 73.46%. For CC(c1cc2ccccc2s1)N(O)C(N)=O (centres unmarked) [ONC0004002, zileuton], the “% viability” value was 61.97%. C[C@]12C=CC(=O)C=C1CCC1C2[C@@H](O)C[C@@]2(C)C1CC[C@]2(O)C(=O)COC(=O)CCC(=O)O (some centres unmarked) [ONC0004028, prednisolone hemisuccinate] was tested, and the “% viability” value was 62.59%. C[C@]12CCC(=O)C=C1CCC1C2C(=O)C[C@@]2(C)C1CC[C@]2(O)C(=O)CO (some centres unmarked) [ONC0005338, cortisone] was tested, and the “% viability” value was 64.83%. For C/C(=N\NC(=O)[C@@H]1C(=O)NC[C@H]1c1ccccc1)c1cccc(Br)c1 [ONC0002559, ac264613], the “% viability” value was 54.39%. With O=C(O)c1cc(O)c2c(c1)[C@H]([C@H]1c3cc(C(=O)O)cc(O)c3C(=O)c3c(O[C@@H]4O[C@H](CO)[C@@H](O)[C@H](O)[C@H]4O)cccc31)c1cccc(O[C@@H]3O[C@H](CO)[C@@H](O)[C@H](O)[C@H]3O)c1C2=O [ONC0002290, sennoside a] the “% viability” value was 83.14%. With CN(C)CCCOc1nn(Cc2ccccc2)c2ccccc12 [ONC0004021, benzydamine hydrochloride] the “% viability” value was 64.93%. COc1ccc(Nc2nccc(NCCO)n2)cc1 [ONC0000720, cardiogenolc] was tested, and the “% viability” value was 79.31%. For CCC(C)(C)C(=O)C(=O)N1CCC[C@H]1C(=O)OCCCc1cccnc1 [ONC0002003, gpi1046], the “% viability” value was 85.52%. For O=C1c2c(O)cc(O)cc2O[C@H](c2ccc(O)c(O)c2)[C@H]1O [ONC0004969, taxifolin dihydroquercetin], the “% viability” value was 64.63%. With CCCC(=O)C1(c2ccccc2)CCN(C(=O)[C@@H](Cc2ccc(OC)cc2)NC(=O)[C@@H](N)Cc2cncn2C)CC1 [ONC0001677, bms470539] the “% viability” value was 82.41%. With CN1CCCC(CN2c3ccccc3Sc3ccccc32)C1 (centres unmarked) [ONC0002869, mepazine] the “% viability” value was 113.3%. In the case of Nc1ccn(C[C@@H](CO)OCP(=O)(O)O)c(=O)n1 [ONC0004422, cidofovir vistide], the “% viability” value is reported as 106.5%. For C1CCC(/N=C(\NC23CC4CC(CC(C4)C2)C3)N2CCOCC2)CC1 [ONC0002564, pnu37883], the “% viability” value was 92.95%. FC(F)(F)c1ccc(/C=C/c2nc(COc3ccc(CCCCn4ccnn4)cc3)co2)cc1 [ONC0000071, mubritinib] was tested, and the “% viability” value was 94.3%. With CC(C)NCCN(C(C)C)S(=O)(=O)c1ccc(Cl)cc1Cl [ONC0000831, rn1734] the “% viability” value was 59.26%. With CC(=O)OCC(=O)[C@@]1(O)CC[C@H]2[C@@H]3CCC4=CC(=O)CC[C@]4(C)[C@H]3C(=O)C[C@@]21C [ONC0000306, cortisone acetate] the “% viability” value was 62.86%. With C=C1C(=O)O[C@H]2[C@H]1CC/C(C)=C\CC[C@@]1(C)O[C@@H]21 [ONC0004743, parthenolide parthenolide] the “% viability” value was 94.43%. With COc1cc(C(=O)N2CCOCC2)cc(OC)c1OC [ONC0002381, trimetozine] the “% viability” value was 59.35%. In the case of Cc1ccc(S(=O)(=O)NC2c3ccccc3Oc3ccccc32)cc1 [ONC0003550, ah7614], the “% viability” value is reported as 103.8%. CC(C)(C)c1cc(C(=O)/C=C/c2ccc(C(=O)O)cc2)cc(C(C)(C)C)c1 [ONC0003055, ch55] was tested, and the “% viability” value was 140.3%. CC(=O)OCC(=O)[C@@]1(O)CC[C@H]2[C@@H]3CCC4=CC(=O)C=C[C@]4(C)[C@@]3(F)[C@@H](O)C[C@@]21C [ONC0002953, isoflupredoneacetate] was tested, and the “% viability” value was 81.46%. CO[C@]12C[C@@H](COC(=O)c3cncc(Br)c3)CN(C)[C@@H]1Cc1cn(C)c3cccc2c13 [ONC0000664, nicergoline] was tested, and the “% viability” value was 95.08%. CCCCC(=O)O[C@]1(C(=O)CO)[C@@H](C)C[C@H]2[C@@H]3CCC4=CC(=O)C=C[C@]4(C)[C@@]3(F)[C@@H](O)C[C@@]21C [ONC0003201, betamethasone valerate] was tested, and the “% viability” value was 84.65%. For C[C@@H](CN1CCC(n2c(=O)[nH]c3cc(Cl)ccc32)CC1)NC(=O)c1ccc2ccccc2c1 [ONC0000807, vu0155069], the “% viability” value was 96%. With O=C(O)COc1nn(Cc2ccccc2)c2ccccc12 [ONC0001924, bendazac] the “% viability” value was 52.28%. In the case of S=C=Nc1ccc(N=C=S)cc1 [ONC0003922, bitoscanate], the “% viability” value is reported as 63.03%. For O=C(O)COc1cccc(-c2ocnc2-c2nc(-c3ccccc3)c(-c3ccccc3)o2)c1 [ONC0001730, bmy45778], the “% viability” value was 72.58%. For CCCCCn1cc(C(=O)NC23CC4CC(CC(C4)C2)C3)c(=O)c2cc(-c3ccccc3)ccc21 [ONC0000099, cor170], the “% viability” value was 96.49%. For OC[C@@H](O)[C@@H](O)[C@H](O)[C@@H](O)CO [ONC0003340, mannitol], the “% viability” value was 113.8%. CNS(=O)(=O)Nc1nccc(Cc2c(C)c3ccc(Oc4ncccn4)cc3oc2=O)c1F [ONC0005131, ro5126766 ch5126766] was tested, and the “% viability” value was 91.03%. Cn1cc(C(=O)OCC2CCN(CCNS(C)(=O)=O)CC2)c2ccccc21 [ONC0001549, gr113808] was tested, and the “% viability” value was 117.8%. In the case of CCc1nc(C(N)=O)c(Nc2ccc(N3CCC(N4CCN(C)CC4)CC3)c(OC)c2)nc1NC1CCOCC1 [ONC0002040, gilteritinib], the “% viability” value is reported as 63.73%. With CCC(C)C(N)C1=NC(C(=O)NC(CC(C)C)C(=O)NC(CCC(=O)O)C(=O)NC(C(=O)NCCCCC2NC(=O)C(CC(N)=O)NC(=O)C(CC(=O)O)NC(=O)C(Cc3c[nH]cn3)NC(=O)C(Cc3ccccc3)NC(=O)C(C(C)CC)NC(=O)C(CCCN)NC2=O)C(C)CC)CS1 (stereo not drawn) [ONC0003188, bacitracin] (cyclo(DNK([Ile-Glu-Leu-X1])[Orn]IFH); configuration not given here) the “% viability” value was 113.7%.
